Data: publication PMC12412668

Target: T1, CD96v1-BioID2-HA (human) (UniProt P40200)
T1 sequence: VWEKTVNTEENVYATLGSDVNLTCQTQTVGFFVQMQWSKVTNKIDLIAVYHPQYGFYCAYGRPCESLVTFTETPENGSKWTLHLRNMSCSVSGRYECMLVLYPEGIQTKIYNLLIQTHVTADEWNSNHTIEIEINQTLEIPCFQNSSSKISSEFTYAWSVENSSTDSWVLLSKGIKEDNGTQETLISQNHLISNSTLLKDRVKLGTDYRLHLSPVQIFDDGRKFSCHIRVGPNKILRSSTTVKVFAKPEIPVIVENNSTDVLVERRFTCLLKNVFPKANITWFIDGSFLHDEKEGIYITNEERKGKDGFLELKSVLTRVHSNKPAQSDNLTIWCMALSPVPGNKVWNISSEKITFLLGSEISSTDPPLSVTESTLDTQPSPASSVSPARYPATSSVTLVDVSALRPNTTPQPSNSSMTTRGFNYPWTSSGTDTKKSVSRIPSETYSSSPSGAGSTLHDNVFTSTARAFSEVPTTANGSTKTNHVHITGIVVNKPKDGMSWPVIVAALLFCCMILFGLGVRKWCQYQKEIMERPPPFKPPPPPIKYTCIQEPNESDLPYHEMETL
Test: co-IP; 293T cells co-transfected with CD96v1-BioID2-HA and AU1-tagged Nef or Vpu; lysed in 50 mM tris, 0.5% Brij 98, 150 mM NaCl; CD96 precipitated with anti-HA antibody and protein G Sepharose at 4°C; blots with anti-HA and anti-AU1

## AU1-tagged HIV-1 Nef
  binding: no binding

Results are given in words; binding and its absence hold for the method and conditions named. In cells and extracts the contact can be indirect. Where a sequence is shown, tags or fusion partners need not be part of it.
